According to patent publication US10618901B2 (GlaxoSmithKline Intellectual Property Development Limited, priority 2014, dated 2020):
Read-outs that look alike come from different tables or passages of the source. Some of these results come from one statement about several compounds together.

Chains of the proteins cited; added tags and fusions are not shown. Lines headed by an entry give the natural chain unless they say otherwise; changes in a name come on top.
UniProt Q5S007: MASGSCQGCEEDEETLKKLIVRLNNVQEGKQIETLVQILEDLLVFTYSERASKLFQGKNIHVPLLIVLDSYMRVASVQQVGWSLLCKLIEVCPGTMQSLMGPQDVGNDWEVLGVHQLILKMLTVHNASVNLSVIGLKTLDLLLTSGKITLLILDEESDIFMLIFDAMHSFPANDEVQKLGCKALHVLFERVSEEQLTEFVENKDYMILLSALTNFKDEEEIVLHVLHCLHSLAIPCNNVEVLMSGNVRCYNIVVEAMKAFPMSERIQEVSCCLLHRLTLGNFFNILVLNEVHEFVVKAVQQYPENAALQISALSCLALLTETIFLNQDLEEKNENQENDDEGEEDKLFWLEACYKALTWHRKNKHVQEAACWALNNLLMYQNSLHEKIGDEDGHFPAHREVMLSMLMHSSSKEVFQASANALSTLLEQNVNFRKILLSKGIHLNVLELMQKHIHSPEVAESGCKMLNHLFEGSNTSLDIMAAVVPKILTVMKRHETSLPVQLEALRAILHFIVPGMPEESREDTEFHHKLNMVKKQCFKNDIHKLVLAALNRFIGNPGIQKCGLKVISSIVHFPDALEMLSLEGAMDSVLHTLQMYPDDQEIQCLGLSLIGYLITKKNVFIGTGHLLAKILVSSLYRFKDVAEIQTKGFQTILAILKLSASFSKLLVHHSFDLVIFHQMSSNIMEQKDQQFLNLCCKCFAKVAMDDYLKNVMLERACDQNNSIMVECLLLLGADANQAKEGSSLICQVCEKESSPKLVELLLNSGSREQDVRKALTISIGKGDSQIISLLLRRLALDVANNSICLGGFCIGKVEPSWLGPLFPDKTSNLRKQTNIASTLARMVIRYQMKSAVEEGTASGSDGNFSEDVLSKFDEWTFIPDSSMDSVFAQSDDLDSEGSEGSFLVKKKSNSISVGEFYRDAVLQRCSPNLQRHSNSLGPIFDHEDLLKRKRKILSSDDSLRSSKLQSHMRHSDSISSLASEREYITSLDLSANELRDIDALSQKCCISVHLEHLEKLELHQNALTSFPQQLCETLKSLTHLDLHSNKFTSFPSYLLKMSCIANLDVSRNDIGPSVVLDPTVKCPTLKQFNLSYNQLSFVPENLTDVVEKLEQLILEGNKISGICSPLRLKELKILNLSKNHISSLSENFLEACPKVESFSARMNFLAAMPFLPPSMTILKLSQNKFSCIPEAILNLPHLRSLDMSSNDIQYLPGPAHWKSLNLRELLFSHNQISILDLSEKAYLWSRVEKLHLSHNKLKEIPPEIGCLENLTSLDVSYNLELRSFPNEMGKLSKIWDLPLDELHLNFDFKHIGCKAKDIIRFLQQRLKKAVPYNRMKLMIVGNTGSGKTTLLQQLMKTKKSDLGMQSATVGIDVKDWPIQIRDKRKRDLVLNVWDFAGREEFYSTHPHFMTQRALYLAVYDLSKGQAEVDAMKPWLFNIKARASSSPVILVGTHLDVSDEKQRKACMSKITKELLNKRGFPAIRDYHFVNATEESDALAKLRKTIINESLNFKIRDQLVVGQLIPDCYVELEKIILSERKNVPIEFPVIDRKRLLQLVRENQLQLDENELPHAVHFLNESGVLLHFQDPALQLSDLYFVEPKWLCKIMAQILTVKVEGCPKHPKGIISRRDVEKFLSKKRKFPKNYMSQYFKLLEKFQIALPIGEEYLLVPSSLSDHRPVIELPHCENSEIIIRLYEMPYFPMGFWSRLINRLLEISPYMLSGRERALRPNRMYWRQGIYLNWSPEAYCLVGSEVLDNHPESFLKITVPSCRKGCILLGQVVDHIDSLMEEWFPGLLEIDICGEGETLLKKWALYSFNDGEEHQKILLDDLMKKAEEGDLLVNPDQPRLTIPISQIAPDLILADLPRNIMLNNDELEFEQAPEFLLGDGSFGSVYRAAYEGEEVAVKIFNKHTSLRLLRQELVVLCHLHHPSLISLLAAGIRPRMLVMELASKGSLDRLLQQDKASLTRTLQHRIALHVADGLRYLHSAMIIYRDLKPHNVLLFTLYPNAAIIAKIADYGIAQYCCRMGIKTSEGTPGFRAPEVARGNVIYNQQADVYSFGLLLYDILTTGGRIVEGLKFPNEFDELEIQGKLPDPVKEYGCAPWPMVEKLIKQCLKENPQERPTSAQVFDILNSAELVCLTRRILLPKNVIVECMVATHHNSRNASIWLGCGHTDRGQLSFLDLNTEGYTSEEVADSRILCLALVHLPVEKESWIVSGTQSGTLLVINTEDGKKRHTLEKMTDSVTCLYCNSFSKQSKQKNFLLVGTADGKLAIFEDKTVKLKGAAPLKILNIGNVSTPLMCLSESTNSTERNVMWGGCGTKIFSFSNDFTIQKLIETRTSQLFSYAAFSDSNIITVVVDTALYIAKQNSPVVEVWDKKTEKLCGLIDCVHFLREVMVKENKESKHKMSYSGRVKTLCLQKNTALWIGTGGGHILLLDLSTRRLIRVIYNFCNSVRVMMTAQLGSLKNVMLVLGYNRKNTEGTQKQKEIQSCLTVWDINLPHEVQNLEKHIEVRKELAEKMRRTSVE

Biological target: T1, LRRK2 Ser935 phosphorylation in SH-SY5Y cells over-expressing recombinant full length LRRK2 (Homo sapiens, UniProt Q5S007)
T1 construct: A BacMam virus expressing full length recombinant LRRK2 was purchased from Invitrogen; host or cells: SH-SY5Y (BacMam transduction)
Assay: Recombinant cellular LRRK2 AlphaScreen assay
Format: cell-based
Outline: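 SH-SY5Y cells transduced with BacMam full-length LRRK2 (MOI 50, 24 h) were treated with compound, top final 10 uM, for 60 min at 37° C. Lysates were assayed by AlphaScreen for pSer935 and total LRRK2. Dose-response fitted to a sigmoidal model.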

| Molecule | pIC50 in the recombinant cellular LRRK2 alphaScreen assay (text statement) | pIC50 in the recombinant cellular LRRK2 alphaScreen assay | other results |
| --- | --- | --- | --- |
| trans-2-(5-chloro-4-((4-ethoxy-7H-pyrrolo-[2,3-d]-pyrimidin-2-yl)amino)-1H-pyrazol-1-yl)cyclopentanol [Example E38] | ≥ 7.0 |  | pIC50 in the recombinant cellular LRRK2 alphaScreen assay (text statement, listed as Example E38): ≥ 5.0 |
| CCOc1nc(Nc2cnn(C(C)(C)CN3CCOCC3)c2C)nc2[nH]ccc12 [Example E90, 4-ethoxy-N-(5-methyl-1-(2-methyl-1-morpholinopropan-2-yl)-1H-pyrazol-4-yl)-7H-pyrrolo[2,3-d]pyrimidin-2-amine] | ≥ 5.0 |  |  |
| CCOc1nc(Nc2cnn(C3CCOCC3F)c2C)nc2[nH]ccc12 (single isomer, unassigned) [Example E127, (cis)-4-ethoxy-N-(1-(3-fluorotetrahydro-2H-pyran-4-yl)-5-methyl-1H-pyrazol-4-yl)-7H-pyrrolo[2,3-d]pyrimidin-2-amine] |  |  | pIC50 in the recombinant cellular LRRK2 alphaScreen assay (text statement, listed as Example E127): ≥ 5.0 |
| CCOc1nc(Nc2cnn(C3CN(C4COC4)CCC3(F)F)c2Cl)nc2[nH]ccc12 (single isomer, unassigned) [Example E124, N-(5-chloro-1-(4,4-difluoro-1-(oxetan-3-yl)piperidin-3-yl)-1H-pyrazol-4-yl)-4-ethoxy-7H-pyrrolo[2,3-d]pyrimidin-2-amine] | ≥ 7.0 |  | pIC50 in the recombinant cellular LRRK2 alphaScreen assay (text statement, listed as Example E124): ≥ 5.0 |
| CCOc1nc(Nc2cnn(C3CCN(C4COC4)CC3F)c2Cl)nc2[nH]ccc12 (single isomer, unassigned) [Example E106, cis-N-(5-chloro-1-(3-fluoro-1-(oxetan-3-yl)piperidin-4-yl)-1H-pyrazol-4-yl)-4-ethoxy-7H-pyrrolo[2,3-d]pyrimidin-2-amine] |  |  | pIC50 in the recombinant cellular LRRK2 alphaScreen assay (text statement, listed as Example E106): ≥ 5.0 |
| CCOc1nc(Nc2cnn([C@H]3CC[C@@H](O)CC3)c2C)nc2[nH]ccc12 [Example E54, cis-4-(4-((4-ethoxy-7H-pyrrolo[2,3-d]pyrimidin-2-yl)amino)-5-methyl-1H-pyrazol-1-yl)-cyclohexanol] |  | ≥ 5.0 |  |
| CCOc1nc(Nc2cnn([C@H]3CCN(C4COC4)C[C@@H]3F)c2C)nc2[nH]ccc12 [Example E97, 4-ethoxy-N-(1-((3S,4S)-3-fluoro-1-(oxetan-3-yl)piperidin-4-yl)-5-methyl-1H-pyrazol-4-yl)-7H-pyrrolo[2,3-d]pyrimidin-2-amine] |  | ≥ 5.0 |  |
| CCOc1nc(Nc2cnn(C3CN(C)CC3F)c2C)nc2[nH]ccc12 (single isomer, unassigned) [Example E59, 4-ethoxy-N-(1-(4-fluoro-1-methylpyrrolidin-3-yl)-5-methyl-1H-pyrazol-4-yl)-7H-pyrrolo-[2,3-d]pyrimidin-2-amine] |  |  | pIC50 in the recombinant cellular LRRK2 alphaScreen assay (text statement, listed as Example E59): ≥ 5.0 |
| CCOc1nc(Nc2cnn(C3CCCC3O)c2Cl)nc2[nH]ccc12 (racemic) [Example E36, (±)-2-(5-chloro-4-((4-ethoxy-7H-pyrrolo-[2,3-d]-pyrimidin-2-yl)amino)-1H-pyrazol-1-yl)cyclopentanol] |  | ≥ 5.0 |  |
| CCOc1nc(Nc2c(C)nn(CC(C)(C)O)c2C)nc2[nH]ccc12 [Example E5, 1-(4-((4-ethoxy-7H-pyrrolo[2,3-d]pyrimidin-2-yl)amino)-3,5-dimethyl-1H-pyrazol-1-yl)-2-methylpropan-2-ol] | ≥ 5.0 |  |  |
| CCOc1nc(Nc2cnn(C3CC(C)(O)C3)c2C)nc2[nH]ccc12 (centres unmarked) [Example E93, 3-(4-((4-ethoxy-7H-pyrrolo[2,3-d]pyrimidin-2-yl)amino)-5-methyl-1H-pyrazol-1-yl)-1-methylcyclobutanol] |  | ≥ 5.0 |  |
| CCOc1nc(Nc2cn(CC(C)(C)O)nc2C)nc2[nH]nc(C)c12 [Example E23, 1-(4-((4-ethoxy-3-methyl-1H-pyrazolo-[3,4-d]-pyrimidin-6-yl)amino)-3-methyl-1H-pyrazol-1-yl)-2-methylpropan-2-ol] | ≥ 5.0 |  |  |
